Results taken from the supplement of paper PMC12823440, “Inhibitors supercharge kinase turnover through native proteolytic circuits” (Nature, 2025).
Structures can show the parent of a compound that is named as a salt. The list shows a part of the results. Hit calls seldom repeat between salt and free forms of one compound.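 Kinases, fused to nanoluciferase, were expressed in K562 cells; luminescence was measured every 4 h from 2 to 18 h as percent of control (DMSO = 100%, positive control = 0%). A time point is decreased if signal falls significantly (2 sigma). Hits were called by the authors by a rule that is not shown; the count of time points alone does not decide it.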

The chains behind the UniProt entries cited, without tags or fusion partners. Where a name states a change or a piece, a line headed by the entry shows the natural chain unless it says otherwise.
UniProt Q16288, whole entry, looked up: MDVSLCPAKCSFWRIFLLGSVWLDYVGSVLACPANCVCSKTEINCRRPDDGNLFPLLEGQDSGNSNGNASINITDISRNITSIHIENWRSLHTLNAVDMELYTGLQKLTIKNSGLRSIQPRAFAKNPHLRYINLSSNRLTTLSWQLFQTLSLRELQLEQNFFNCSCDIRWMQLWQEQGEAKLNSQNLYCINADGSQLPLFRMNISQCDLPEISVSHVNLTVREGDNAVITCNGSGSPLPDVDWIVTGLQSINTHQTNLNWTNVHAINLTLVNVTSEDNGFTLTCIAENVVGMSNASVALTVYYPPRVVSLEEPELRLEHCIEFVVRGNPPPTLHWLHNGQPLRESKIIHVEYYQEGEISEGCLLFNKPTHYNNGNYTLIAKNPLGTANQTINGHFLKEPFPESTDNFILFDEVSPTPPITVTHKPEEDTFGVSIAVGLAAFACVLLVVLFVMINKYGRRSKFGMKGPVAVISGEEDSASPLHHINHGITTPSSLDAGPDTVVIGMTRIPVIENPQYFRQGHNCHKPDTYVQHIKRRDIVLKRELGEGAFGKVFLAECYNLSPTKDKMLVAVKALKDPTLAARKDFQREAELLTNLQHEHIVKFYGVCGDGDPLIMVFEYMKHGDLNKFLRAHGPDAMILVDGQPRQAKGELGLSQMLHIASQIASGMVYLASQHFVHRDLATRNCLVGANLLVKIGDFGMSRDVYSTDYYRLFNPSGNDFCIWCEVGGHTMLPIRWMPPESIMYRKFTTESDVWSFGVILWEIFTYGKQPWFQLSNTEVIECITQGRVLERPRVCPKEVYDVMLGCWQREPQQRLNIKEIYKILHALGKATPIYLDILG
UniProt O96013: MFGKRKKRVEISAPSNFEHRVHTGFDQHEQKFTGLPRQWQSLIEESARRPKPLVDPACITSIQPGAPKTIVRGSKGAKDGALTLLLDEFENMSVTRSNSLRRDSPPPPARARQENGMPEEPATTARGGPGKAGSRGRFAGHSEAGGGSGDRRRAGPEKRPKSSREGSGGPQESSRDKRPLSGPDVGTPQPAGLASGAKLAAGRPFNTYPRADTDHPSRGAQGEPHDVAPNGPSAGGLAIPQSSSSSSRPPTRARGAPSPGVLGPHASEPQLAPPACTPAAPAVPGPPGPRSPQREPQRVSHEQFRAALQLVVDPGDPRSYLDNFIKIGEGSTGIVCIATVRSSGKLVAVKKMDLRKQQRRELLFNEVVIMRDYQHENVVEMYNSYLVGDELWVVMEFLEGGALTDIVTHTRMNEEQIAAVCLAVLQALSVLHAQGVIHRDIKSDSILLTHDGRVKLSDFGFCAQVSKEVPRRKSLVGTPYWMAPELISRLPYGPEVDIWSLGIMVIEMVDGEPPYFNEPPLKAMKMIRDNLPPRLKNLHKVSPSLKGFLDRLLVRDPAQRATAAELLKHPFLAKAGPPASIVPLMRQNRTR
UniProt Q96KB5: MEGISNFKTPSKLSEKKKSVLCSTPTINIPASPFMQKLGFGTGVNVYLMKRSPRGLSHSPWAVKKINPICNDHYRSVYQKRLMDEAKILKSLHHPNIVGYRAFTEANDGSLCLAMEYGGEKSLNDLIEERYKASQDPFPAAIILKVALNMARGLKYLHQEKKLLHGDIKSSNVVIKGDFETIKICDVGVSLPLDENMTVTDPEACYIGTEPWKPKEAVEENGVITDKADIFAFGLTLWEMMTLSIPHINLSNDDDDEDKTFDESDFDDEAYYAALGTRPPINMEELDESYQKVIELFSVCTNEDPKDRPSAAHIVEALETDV
UniProt Q15118, whole entry, looked up: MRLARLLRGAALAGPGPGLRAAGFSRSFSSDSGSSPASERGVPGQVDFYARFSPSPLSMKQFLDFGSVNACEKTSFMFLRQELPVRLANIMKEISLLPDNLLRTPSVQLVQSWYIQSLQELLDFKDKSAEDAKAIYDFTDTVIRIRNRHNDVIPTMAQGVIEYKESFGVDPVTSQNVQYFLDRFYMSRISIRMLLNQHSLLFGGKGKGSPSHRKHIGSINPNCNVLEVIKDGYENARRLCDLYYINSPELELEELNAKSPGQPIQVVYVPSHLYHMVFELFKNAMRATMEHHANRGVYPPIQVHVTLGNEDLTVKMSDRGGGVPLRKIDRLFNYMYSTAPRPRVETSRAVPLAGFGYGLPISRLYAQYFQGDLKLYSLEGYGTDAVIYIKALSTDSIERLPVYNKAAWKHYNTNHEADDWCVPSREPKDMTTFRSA
UniProt O15530: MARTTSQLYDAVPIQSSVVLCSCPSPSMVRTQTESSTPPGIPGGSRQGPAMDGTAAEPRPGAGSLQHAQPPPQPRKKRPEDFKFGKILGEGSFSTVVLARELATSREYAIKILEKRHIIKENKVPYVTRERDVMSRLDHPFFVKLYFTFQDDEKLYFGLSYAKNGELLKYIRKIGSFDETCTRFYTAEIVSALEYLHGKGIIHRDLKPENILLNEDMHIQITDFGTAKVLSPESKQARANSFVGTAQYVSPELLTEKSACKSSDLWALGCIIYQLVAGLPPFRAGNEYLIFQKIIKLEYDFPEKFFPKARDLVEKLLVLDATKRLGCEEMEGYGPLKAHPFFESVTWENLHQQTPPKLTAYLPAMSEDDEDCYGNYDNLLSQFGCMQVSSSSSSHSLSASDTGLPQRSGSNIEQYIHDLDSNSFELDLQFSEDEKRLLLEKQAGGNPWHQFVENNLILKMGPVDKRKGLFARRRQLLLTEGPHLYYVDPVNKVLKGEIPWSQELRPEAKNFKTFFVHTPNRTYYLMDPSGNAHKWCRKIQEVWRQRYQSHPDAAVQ
UniProt P42356, whole entry, looked up: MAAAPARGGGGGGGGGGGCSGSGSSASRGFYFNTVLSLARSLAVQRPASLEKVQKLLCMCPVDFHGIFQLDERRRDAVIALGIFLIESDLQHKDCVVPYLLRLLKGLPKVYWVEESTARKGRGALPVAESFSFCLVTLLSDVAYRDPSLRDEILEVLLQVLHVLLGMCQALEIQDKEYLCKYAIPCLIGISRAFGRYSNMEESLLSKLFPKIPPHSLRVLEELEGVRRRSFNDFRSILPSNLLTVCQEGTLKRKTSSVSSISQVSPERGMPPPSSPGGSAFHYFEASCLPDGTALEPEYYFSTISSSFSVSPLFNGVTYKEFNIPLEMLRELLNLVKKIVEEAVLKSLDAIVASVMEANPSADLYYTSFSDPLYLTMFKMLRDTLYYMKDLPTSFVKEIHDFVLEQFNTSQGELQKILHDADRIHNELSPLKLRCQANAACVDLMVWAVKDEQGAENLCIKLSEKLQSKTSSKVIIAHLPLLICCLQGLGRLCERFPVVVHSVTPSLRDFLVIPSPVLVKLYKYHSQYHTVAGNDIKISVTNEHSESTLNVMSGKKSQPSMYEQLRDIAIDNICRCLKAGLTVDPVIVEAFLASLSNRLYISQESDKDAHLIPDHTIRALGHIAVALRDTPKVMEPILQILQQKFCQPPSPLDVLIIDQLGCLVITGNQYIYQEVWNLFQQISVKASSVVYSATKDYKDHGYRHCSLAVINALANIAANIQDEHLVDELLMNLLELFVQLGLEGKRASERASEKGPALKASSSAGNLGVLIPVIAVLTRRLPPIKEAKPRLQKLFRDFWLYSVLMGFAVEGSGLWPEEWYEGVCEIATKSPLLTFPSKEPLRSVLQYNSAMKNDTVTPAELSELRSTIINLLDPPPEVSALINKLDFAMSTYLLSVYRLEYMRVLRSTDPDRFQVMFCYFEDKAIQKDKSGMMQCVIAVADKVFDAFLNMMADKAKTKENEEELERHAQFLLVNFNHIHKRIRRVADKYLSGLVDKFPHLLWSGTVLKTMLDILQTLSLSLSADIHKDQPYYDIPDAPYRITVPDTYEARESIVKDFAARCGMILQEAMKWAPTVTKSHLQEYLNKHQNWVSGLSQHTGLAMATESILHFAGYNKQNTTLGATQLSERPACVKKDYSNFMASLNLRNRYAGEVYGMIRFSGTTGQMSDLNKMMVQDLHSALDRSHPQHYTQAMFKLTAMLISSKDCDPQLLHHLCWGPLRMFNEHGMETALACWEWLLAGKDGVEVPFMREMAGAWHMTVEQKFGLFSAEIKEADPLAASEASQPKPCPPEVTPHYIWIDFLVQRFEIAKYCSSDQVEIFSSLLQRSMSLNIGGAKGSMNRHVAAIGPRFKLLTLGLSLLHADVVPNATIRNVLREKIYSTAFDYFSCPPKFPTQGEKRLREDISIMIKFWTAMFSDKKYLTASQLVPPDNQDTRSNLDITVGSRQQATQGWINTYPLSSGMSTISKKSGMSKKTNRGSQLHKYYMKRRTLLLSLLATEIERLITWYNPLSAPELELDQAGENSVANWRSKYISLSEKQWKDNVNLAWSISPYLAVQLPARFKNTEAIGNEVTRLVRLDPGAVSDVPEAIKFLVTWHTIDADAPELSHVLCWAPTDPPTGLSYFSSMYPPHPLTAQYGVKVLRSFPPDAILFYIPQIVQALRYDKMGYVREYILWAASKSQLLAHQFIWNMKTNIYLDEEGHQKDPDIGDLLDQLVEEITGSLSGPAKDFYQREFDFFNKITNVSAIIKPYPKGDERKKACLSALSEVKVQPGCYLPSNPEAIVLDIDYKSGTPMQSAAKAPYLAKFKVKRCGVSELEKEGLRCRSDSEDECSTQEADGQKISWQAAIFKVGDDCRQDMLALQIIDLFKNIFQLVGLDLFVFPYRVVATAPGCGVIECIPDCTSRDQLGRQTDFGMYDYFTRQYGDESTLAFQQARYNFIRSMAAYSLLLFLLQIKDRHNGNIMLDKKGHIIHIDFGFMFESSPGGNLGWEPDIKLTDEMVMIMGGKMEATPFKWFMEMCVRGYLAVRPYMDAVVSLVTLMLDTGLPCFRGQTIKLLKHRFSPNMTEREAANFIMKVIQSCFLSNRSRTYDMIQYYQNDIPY
UniProt Q9UBF8: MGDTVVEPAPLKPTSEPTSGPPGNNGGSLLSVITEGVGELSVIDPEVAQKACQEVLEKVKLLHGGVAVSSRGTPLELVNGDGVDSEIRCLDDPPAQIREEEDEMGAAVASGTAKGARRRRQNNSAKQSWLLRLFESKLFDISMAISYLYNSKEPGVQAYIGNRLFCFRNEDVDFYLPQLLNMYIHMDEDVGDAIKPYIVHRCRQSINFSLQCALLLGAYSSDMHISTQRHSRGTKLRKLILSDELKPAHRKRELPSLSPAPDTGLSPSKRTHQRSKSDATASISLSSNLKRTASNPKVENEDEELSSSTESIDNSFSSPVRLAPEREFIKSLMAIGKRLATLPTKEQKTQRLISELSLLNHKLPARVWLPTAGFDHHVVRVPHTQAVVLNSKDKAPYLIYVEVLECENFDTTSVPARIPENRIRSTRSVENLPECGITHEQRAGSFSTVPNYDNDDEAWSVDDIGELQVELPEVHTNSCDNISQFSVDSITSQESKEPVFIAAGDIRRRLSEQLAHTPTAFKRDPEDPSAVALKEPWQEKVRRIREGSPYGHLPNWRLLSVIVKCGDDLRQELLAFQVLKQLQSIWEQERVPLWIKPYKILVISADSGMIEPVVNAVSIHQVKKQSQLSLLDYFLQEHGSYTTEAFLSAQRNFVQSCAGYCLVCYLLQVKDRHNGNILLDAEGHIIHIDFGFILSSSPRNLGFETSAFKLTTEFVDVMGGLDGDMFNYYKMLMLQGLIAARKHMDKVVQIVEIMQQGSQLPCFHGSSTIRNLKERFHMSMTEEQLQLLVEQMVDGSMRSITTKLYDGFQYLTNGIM
UniProt P53350, whole entry: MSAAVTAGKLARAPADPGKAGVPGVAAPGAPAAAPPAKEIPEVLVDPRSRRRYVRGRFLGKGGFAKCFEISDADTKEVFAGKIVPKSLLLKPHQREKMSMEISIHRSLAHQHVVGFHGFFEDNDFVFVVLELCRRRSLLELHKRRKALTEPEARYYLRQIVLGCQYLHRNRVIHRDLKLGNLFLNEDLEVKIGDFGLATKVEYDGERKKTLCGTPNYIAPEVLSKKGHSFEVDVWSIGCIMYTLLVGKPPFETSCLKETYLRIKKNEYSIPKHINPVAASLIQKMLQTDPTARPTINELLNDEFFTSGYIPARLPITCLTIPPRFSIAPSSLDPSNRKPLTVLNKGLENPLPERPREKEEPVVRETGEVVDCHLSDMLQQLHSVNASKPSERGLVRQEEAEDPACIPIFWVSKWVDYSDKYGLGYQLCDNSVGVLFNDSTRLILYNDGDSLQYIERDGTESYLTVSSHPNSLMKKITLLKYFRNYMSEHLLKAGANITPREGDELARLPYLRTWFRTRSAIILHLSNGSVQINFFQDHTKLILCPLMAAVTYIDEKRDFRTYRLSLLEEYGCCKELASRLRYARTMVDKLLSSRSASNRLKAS

Experiments:
Test in all cases: number of time points (of 5) at which kinase-Nluc abundance scored as decreased, DMSO-normalised (count); higher = more persistent destabilization
Conditions in all cases: K562; 2-18 h
NTRK3 = NTRK3 (UniProt Q16288)
PAK4 = PAK4 (UniProt O96013)
PBK = PBK (UniProt Q96KB5)
PDGFRB = PDGFRB (UniProt P09619)
PDK1 = PDK1 (UniProt Q15118)
PDPK1 = PDPK1 (UniProt O15530)
PIK4CA = PIK4CA (UniProt P42356)
PIK4CB = PIK4CB (UniProt Q9UBF8)
PLK1 = PLK1 (UniProt P53350)
PRKAA1 = PRKAA1 (UniProt Q13131)

Measured: number of time points

Cc1ccc2c(NS(=O)(=O)c3ccccc3Cl)cccc2c1Oc1ncccc1-c1ccnc(N[C@H]2CCCNC2)n1 (2.5 µM)
0: all assays above

O=C1Cc2ccccc2N1 [Oxindole] (10 µM)
0: all assays above

Cc1cnc(Cl)nc1-c1ccc(N(Cc2ccc(CNC(=O)C(F)F)cc2)C(=O)c2ccc(O)cc2O)cc1 (10 µM)
0: all assays above

CNCCOc1ccccc1C1(Nc2nccn(-c3cc(C(=O)NC4CC4)cc(F)c3C)c2=O)CC1 (10 µM)
0: all assays above

O=c1cc(N2CCOCC2)oc2c(-c3cccc4c3sc3ccccc34)cccc12 (10 µM)
0: all assays above

O=C(NC[C@H](O)CO)c1ccncc1Nc1ccc(I)cc1F [Pimasertib] (10 µM)
2: PIK4CB
1: PDPK1
0: all other assays above

CC1(C)CN(C(=O)c2ccc(-c3cccc4nc(NC(=O)C5CC5)nn34)cc2)C1 [Solcitinib] (10 µM)
0: all assays above

CNc1cc2c(Nc3cccc(Br)c3)ncnc2cn1 (10 µM)
0: all assays above

O=c1cc(-c2ccc(O[C@@H]3O[C@H](CO)[C@@H](O)[C@H](O)[C@H]3O)cc2)oc2cc(O)c([C@@H]3O[C@H](CO)[C@@H](O)[C@H](O)[C@H]3O[C@@H]3OC[C@H](O)[C@H](O)[C@H]3O)c(O)c12 [Vaccarin] (10 µM)
0: all assays above

O=CN1CCN(c2ccc(C=C3C(=O)Nc4ccccc43)cc2)CC1 (10 µM)
0: all assays above

Nc1ccc(Sc2nc3ccccc3s2)c(Cl)c1 [KRAS inhibitor-9] (10 µM)
0: all assays above

Cc1cccc(CC(=O)N2CCc3c2ccc(-c2cn(C)c4ncnc(N)c24)c3F)n1 (10 µM)
0: all assays above

O=C(Nc1ccccc1C(=O)NC1CCCCNC1=O)c1cc2ccccc2s1 (stereo not given) (10 µM)
0: all assays above

COc1cc2ncnc(Nc3cc(Br)c(O)c(Br)c3)c2cc1OC (2.5 µM)
0: all assays above

COc1ccc(Br)c(C=O)c1O [6-Bromo-2-hydroxy-3-methoxybenzaldehyde] (10 µM)
0: all assays above

CN1CCN(Cc2ccc(-c3cnc4[nH]cc(-c5ccc6[nH]ccc6c5)c4c3)cc2)CC1 (2.5 µM)
0: all assays above

Cc1nn(CC(F)(F)F)cc1Nc1ncc(Br)c(NCc2ccc(S(N)(=O)=O)cc2)n1 (10 µM)
0: all assays above

O=C(Nc1ccc(F)cc1F)C(NC(=S)Nc1cc(C(F)(F)F)cc(C(F)(F)F)c1)c1ccccc1 (racemic) (2.5 µM)
0: all assays above

CCC(F)(F)c1cc(N2CCC(S(C)(=O)=O)CC2)nc2sc(C(N)=O)c(N)c12 (10 µM)
0: all assays above

NC(=O)c1cnc(N[C@@H]2CCCC[C@@H]2N)nc1Nc1cccc(-n2nccn2)c1 (2.5 µM)
0: all assays above

COc1cc2nc(NC3CC3)nc(NC3CCN(C(C)C)CC3)c2cc1OC (10 µM)
0: all assays above

Cc1nc(NC(=O)N2CCC[C@H]2C(N)=O)sc1-c1ccnc(C(C)(C)C(F)(F)F)c1 [Alpelisib] (2.5 µM)
0: all assays above

CN(C)C(=O)c1cc2cnc(Nc3ccc(N4CCN(CCCCNC(=O)COc5cccc6c5C(=O)N(C5CCC(=O)NC5=O)C6=O)CC4)cn3)nc2n1C1CCCC1 (stereo not given) (10 µM)
0: all assays above

COc1cc(N2CCC(O)CC2)ccc1Nc1nc(Nc2ccccc2S(=O)(=O)C(C)C)c2[nH]cnc2n1 (10 µM)
0: all assays above

Fc1ccc(-c2nc3n(c2-c2ccncc2)CCS3)cc1 (10 µM)
0: all assays above

COc1cccc(-c2cc(=O)c3ccccc3o2)c1N (10 µM)
0: all assays above

CNC(=O)CN1CCC(Oc2cc3c(Nc4cccc(Cl)c4F)ncnc3cc2OC)CC1 [Sapitinib] (10 µM)
0: all assays above

CC(=O)O[C@@H]1[C@@H](OC(C)=O)[C@@H](O)[C@H](Oc2c(-c3ccc(O)cc3)oc3cc(O)cc(O)c3c2=O)O[C@H]1C (10 µM)
0: all assays above

Nc1nc(Nc2ccc3c(c2)CC[C@@H](N2CCCC2)CC3)nn1-c1cc2c(nn1)-c1ccccc1CCC2 [Bemcentinib] (2.5 µM)
0: all assays above

CCC[C@H](C)Oc1nc(N)c2[nH]c(=O)n(CCCCCN3CCCCC3)c2n1 (10 µM)
0: all assays above

Eleven entries already listed, ordered by length of the SMILES, descending.
O=c1cc(-c2ccc(O[C@@H]3O[C@H](CO)[C@@H](O)[C@H](O)[C@H]3O)cc2)oc2cc(O)c([C@@H]3O[C@H](CO)[C@@H](O)[C@H](O)[C@H]3O[C@@H]3OC[C@H](O)[C@H](O)[C@H]3O)c(O)c12 [Vaccarin] (10 µM)
0: all assays above

Cc1cnc(Cl)nc1-c1ccc(N(Cc2ccc(CNC(=O)C(F)F)cc2)C(=O)c2ccc(O)cc2O)cc1 (10 µM)
0: all assays above

O=C(Nc1ccc(F)cc1F)C(NC(=S)Nc1cc(C(F)(F)F)cc(C(F)(F)F)c1)c1ccccc1 (racemic) (2.5 µM)
0: all assays above

Cc1nc(NC(=O)N2CCC[C@H]2C(N)=O)sc1-c1ccnc(C(C)(C)C(F)(F)F)c1 [Alpelisib] (2.5 µM)
0: all assays above

NC(=O)c1cnc(N[C@@H]2CCCC[C@@H]2N)nc1Nc1cccc(-n2nccn2)c1 (2.5 µM)
0: all assays above

CC1(C)CN(C(=O)c2ccc(-c3cccc4nc(NC(=O)C5CC5)nn34)cc2)C1 [Solcitinib] (10 µM)
0: all assays above

Cc1cccc(CC(=O)N2CCc3c2ccc(-c2cn(C)c4ncnc(N)c24)c3F)n1 (10 µM)
0: all assays above

CNC(=O)CN1CCC(Oc2cc3c(Nc4cccc(Cl)c4F)ncnc3cc2OC)CC1 [Sapitinib] (10 µM)
0: all assays above

O=C(Nc1ccccc1C(=O)NC1CCCCNC1=O)c1cc2ccccc2s1 (stereo not given) (10 µM)
0: all assays above

COc1cc2ncnc(Nc3cc(Br)c(O)c(Br)c3)c2cc1OC (2.5 µM)
0: all assays above

O=C1Cc2ccccc2N1 [Oxindole] (10 µM)
0: all assays above

Later entries

C[C@@H]1CN(Cc2ccc(F)cc2)[C@@H](C)CN1C(=O)c1cc2c(C(=O)C(=O)N(C)C)cn(C)c2cc1Cl [Talmapimod] (10 µM)
0: all assays above

CO[C@]1(C(=O)N[C@@H](C)c2ccc(-n3cc(F)cn3)nc2)CC[C@H](c2nc(C)cc(Nc3cc(C)[nH]n3)n2)CC1 [Pralsetinib] (10 µM)
0: all assays above

CCNC(=O)Nc1ccc(-c2nc3c(c(N4CCOC[C@@H]4C)n2)CCN(C2COC2)C3)cc1 (2.5 µM)
1: PDPK1 | PRKAA1
0: all other assays above

CC/C(=C(\c1ccccc1)c1ccc(OCCNC)cc1)c1ccccc1 [N-Desmethyltamoxifen (hydrochloride)] (2.5 µM)
0: all assays above

CC(C)(CCCCCC(O)CCCCCC(C)(C)C(=O)O)C(=O)O [Bempedoic acid] (10 µM)
0: all assays above

Cc1ncsc1-c1ccc(CNC(=O)[C@@H]2C[C@@H](O)CN2C(=O)[C@@H](NC(=O)COCCOc2ccc(-c3cc(Nc4ccc(OC(F)(F)F)cc4)ncn3)cc2)C(C)(C)C)cc1 (2.5 µM)
2: PDPK1 | PIK4CA | PLK1
3: PIK4CB
1: NTRK3 | PRKAA1
0: all other assays above
